Experimental data published in PubChem BioAssay AID624297 (National Center for Advancing Translational Sciences (NCATS), 2012).
The whole screen tested about 340,000 compounds, of which about 6,200 (1.8%) were called active. The shares of active, inactive and inconclusive entries below differ from those in the screen. Calls come from the whole dose curve; as a rule, active = well fitted activation curve with a large enough effect; inconclusive = small, poorly fitted or top-dose-only effect; inactive = no such curve, though single readings can be large or run the other way. Potencies of inconclusive entries are doubtful fits and often do not repeat.

assay: A quantitative high throughput screen for small molecules that induce DNA re-replication in SW480 colon adenocarcinoma cells.; note: nearly all actives have a fitted effect of over 55% in size; for re-replication activation: % of control where 0% means no effect; settings: Hoechst DNA content imaging, 48 h; re-replication activation: at 46.1 µM (top of the series)
In short: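 Hoechst fluorescence of nuclei (405 nm excitation, 500-530 nm emission) measured by plate-scanning imager after 48 hr compound exposure at 37 C; re-replication scored as increased number of nuclei with elevated intensity.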
Potency is the fitted concentration of half-maximal effect.

Row | SMILES | Potency | re-replication activation
1 | C=C(C)COc1ccc(-c2nc(N)ncc2Oc2ccccc2OC)c(O)c1 | inconclusive: 23.1 µM [activator, partial curve, poor fit] | –
2 | COc1ccc(CNCC(=O)Nc2cc(OC)cc(OC)c2)cc1 | – | inactive: -10.5%
3 | COc1ccc(Oc2ccccc2/C=N/O)cc1 | inconclusive: 32.6 µM [activator, partial curve, poor fit] | –
4 | CC(C)(C)OC(=O)NCc1ccc(NC(=O)c2nc[nH]c2C(=O)NCCCNC(=O)c2[nH]cnc2C(=O)Nc2ccc(CNC(=O)OC(C)(C)C)cc2)cc1 | inconclusive: 0.116 µM [activator, full curve, poor fit] | –
5 | Cc1ccc(Cl)cc1N1CCN(C(=O)c2noc(C(C)C)c2[N+](=O)[O-])CC1 | inconclusive: 6.51 µM [activator, full curve, poor fit] | –
6 | Cc1ccc(-n2cc(CNCCCN3CCCC3=O)c(-c3ccc(F)cc3)n2)cc1 | inconclusive: 29.1 µM [activator, single point] | –
7 | NNC(=O)c1csc(COc2cc(Cl)cc(Cl)c2)n1 | – | inactive: 11.6%
8 | Cc1nc(C(C)NC(=O)CCc2nnc(CCCc3ccccc3)o2)c(C)s1 (stereo not given) | inconclusive: 18.4 µM [activator, partial curve, poor fit] | –
9 | COc1cccc(Nc2nc(-c3ccccc3)nc3ccccc23)c1 | inconclusive: 29.1 µM [activator, single point] | –
10 | CC1CCCN(CCCN2C(=O)C3C(C(=O)Nc4ccc(Cl)cc4)C4C=CC3(O4)C2C(=O)NC2CCCCC2)C1 (stereo not given) | inconclusive: 18.4 µM [activator, single point] | –
11 | NC(=O)N/N=C/c1ccc2cccc(OCc3ccccc3)c2n1 | inconclusive: 18.4 µM [activator, single point] | –
12 | Cc1cc(CN(C)C(=O)c2ccc(OC3CCN(S(=O)(=O)N(C)C)CC3)cc2)n[nH]1 | inconclusive: 6.51 µM [activator, single point] | –
13 | O=C1OCCN1/N=C/c1ccc([N+](=O)[O-])o1 | inactive | –
14 | Cc1ccc(OCC(O)Cn2c(N)nc3c2c(=O)n(C)c(=O)n3C)cc1 (stereo not given) | – | inactive: -1.26%
15 | O=C(CCC1CCCN(C(=O)c2ccc3c(c2)OCO3)C1)N1CCN(c2ccccn2)CC1 (stereo not given) | inconclusive: 6.51 µM [activator, single point] | –
16 | Cc1ccc2c(cnn2C(=O)CCC(=O)NC2CCCC2)c1 | inconclusive: 18.4 µM [activator, partial curve, poor fit] | –
17 | O=C(CN(Cc1ccccc1)C(=O)c1cccc([N+](=O)[O-])c1)Nc1c(Cl)cc(Cl)cc1Cl | – | inactive: -5.41%
18 | O=C1c2ccccc2NC(c2ccccc2O)N1O (stereo not given) | inconclusive: 20.6 µM [activator, single point] | –
19 | CCN(CC(=O)NC(=O)NCc1ccccc1)Cc1ccccc1 | inconclusive: 29.1 µM [activator, single point] | –
20 | C=CCCc1ccc(C#N)c(SCc2c(C(=O)OCC)c3cc(OC(C)=O)c(Br)cc3n2C)n1 | inconclusive: 10.3 µM [activator, partial curve] | –
21 | CC(C)NC(=O)N(C)C[C@H]1Oc2ccc(NS(=O)(=O)c3cn(C)cn3)cc2C(=O)N([C@H](C)CO)C[C@@H]1C | – | inactive: -0.701%
22 | O=C(N1CCN(c2ccccn2)CC1)N1c2ccccc2Sc2ccccc21 | active: 0.651 µM | –

Row | SMILES | Potency | re-replication activation
23 | O=C(c1cc2ccccc2[nH]1)N(Cc1cccnc1)CC1CCCN(C2CCCCC2)C1 (stereo not given) | inconclusive: 29.1 µM [activator, single point] | –
24 | CC(C)(C)c1ccc(/C=C(\c2nc3ccccc3[nH]2)S(=O)(=O)c2ccccc2)cc1 | active: 8.2 µM | –
25 | O=[N+]([O-])c1cc(C=Nc2ccc3ccccc3c2)ccc1Br | inconclusive: 20.6 µM [activator, single point] | –
26 | Cc1ccc(C(=O)Nc2ccc3ccccc3c2)cc1 | – | inactive: -4.11%
27 | CC(C)(C)NC(=O)C(c1ccc(Cl)cc1)N(Cc1ccco1)C(=O)CCl (stereo not given) | – | inactive: -3.22%
28 | Cc1cc(-n2c(C)cc(C(=O)CSc3[nH]c(=O)cc(C(F)(F)F)c3C#N)c2C)no1 | active: 3.26 µM | –
29 | COc1ccc(C)cc1NC(=O)c1ccc(CN2CCc3ccccc3C2)cc1 | – | inactive: 4.38%
30 | CCCCN(C(=O)c1ccc([N+](=O)[O-])s1)c1c(N)n(CCCC)c(=O)[nH]c1=O | inconclusive: 31.6 µM [activator, single point] | –
31 | C=CCOC(=O)C1=C[C@@H](c2ccccc2)C[C@@H](OCc2ccc(CO)cc2)O1 | inconclusive: 32.6 µM [activator, partial curve, poor fit] | –
32 | COc1ccc(-c2nn(-c3ccccc3)cc2/C=N/Nc2ccccn2)cc1OC | inconclusive: 29.1 µM [activator, single point] | –
33 | C/C(=N\NC(=O)c1cccs1)C(C)(C)C | inconclusive: 23.1 µM [activator, single point] | –
34 | CC(C)C(=O)Nc1ccnc(-c2cccnc2)n1 | inconclusive: 11.6 µM [activator, partial curve, poor fit] | –
35 | CCC(C)NC(=O)c1ccccc1NC(=O)C1COc2ccccc2O1 (stereo not given) | – | inactive: 16.3%
36 | O=C(Cc1ccccc1)Nc1cccnc1 | inconclusive: 29.1 µM [activator, single point] | –
37 | C[C@@H]1CN([C@@H](C)CO)C(=O)c2cccc(NC(=O)Nc3ccc(F)cc3)c2O[C@@H]1CN(C)Cc1ccc(Oc2ccccc2)cc1 | inconclusive: 14.6 µM [activator, single point] | –
38 | COc1cc(C2NC(=O)NC(C)=C2C(=O)OC2CCCCC2)cc(Br)c1O (stereo not given) | inconclusive: 29.1 µM [activator, single point] | –
39 | Nc1nonc1-n1nnc(C(=O)N/N=C/C=C/c2ccccc2)c1CSC1=NCCS1 | inconclusive: 29.1 µM [activator, single point] | –
40 | CCCCNc1c(-c2ccc(OC)c(SC(C)CC)c2)nc2cc(C)ccn12 (stereo not given) | inconclusive: 18.4 µM [activator, single point] | –
41 | O=C1CCC/C(=N/NC(=O)c2sc3ccccc3c2Cl)C1 | inconclusive: 29.1 µM [activator, single point] | –
42 | CCOC(=O)N1CCN(S(=O)(=O)c2ccc(OCC)cc2)CC1 | – | inactive: -1.84%
43 | Cc1cccn2c(=O)c(C=C(C#N)C#N)c(N3CCN(c4cccc(Cl)c4)CC3)nc12 | inconclusive: 29.1 µM [activator, single point] | –
44 | COc1ccc(S(=O)Cc2ccc(C(=O)NCc3cccc(OC)c3)o2)cc1 (stereo not given) | inconclusive: 14.6 µM [activator, partial curve, poor fit] | –

Row | SMILES | Potency | re-replication activation
45 | COc1ccccc1C1CC(c2ccccc2)=NN1C(=O)c1ccccc1 (stereo not given) | inconclusive: 29.1 µM [activator, single point] | –
46 | Cc1c(NC(=O)C(C)OC(=O)c2ccc([N+](=O)[O-])s2)c(=O)n(-c2ccccc2)n1C (stereo not given) | inconclusive: 20.6 µM [activator, single point] | –
47 | COc1cccc(OCc2cc(/C=N/Nc3ccc(C(=O)O)cc3)ccc2OC)c1 | inconclusive: 25.9 µM [activator, single point] | –
48 | COc1ccccc1C(=O)NCCC(=O)NC1CCCCCC1 | inconclusive: 18.4 µM [activator, partial curve, poor fit] | –
49 | CC(=O)Nc1ccc(NC(=O)c2sc3nc4c(c(-c5ccc(C)cc5)c3c2N)CCC4)cc1 | active: 20.6 µM | –
50 | Cc1c(C(=O)Nc2ccc(Cc3ccncc3)cc2)cccc1[N+](=O)[O-] | – | inactive: -2.29%
51 | OC1CCN(c2c3c(nc4cc(-c5cccc(F)c5)nn24)CCCC3)CC1 | – | inactive: 3.53%
52 | COc1ccc(N2C(=S)NC3c4cc(Cl)ccc4OC2(C)C3C(=O)N(C)C)cc1 (stereo not given) | inconclusive: 25.9 µM [activator, single point] | –
53 | COCCCNC(=S)N1CCCN(c2nc3cc(C)c(C)cc3cc2C#N)CC1 | inconclusive: 29.1 µM [activator, single point] | –
54 | Cc1cc(C)n2nc(SCc3nnc(SCc4ccccc4C)s3)nc2n1 | – | inactive: -19.5%
55 | CCN=C1S/C(=C\c2cn(CC(=O)NCc3ccco3)c3ccccc23)C(=O)N1CC | inconclusive: 10.3 µM [activator, partial curve, poor fit] | –
56 | Fc1cccc(CSc2nnc3ccc(-c4ccncc4)nn23)c1 | inconclusive: 6.51 µM [activator, partial curve, poor fit] | –
57 | Cc1ccc(Nc2nc3ccccc3nc2-n2nc(C)cc2C)cc1 | – | inactive: 0.878%
58 | Cc1cccc(Nc2nnc(SC/C(O)=C(\C#N)c3nc4ccccc4[nH]3)s2)c1C | inconclusive: 29.1 µM [activator, single point] | –
59 | CCC(=O)Nc1ccc2nc(C)n(CC(=O)Nc3ccccc3)c(=O)c2c1 | inconclusive: 0.13 µM [activator, full curve, poor fit] | –
60 | COC(=O)CCCn1c(C)cc(C(=O)CCl)c1C | inconclusive: 18.4 µM [activator, single point] | –
61 | COc1ccnc(CSC(N)=Nc2ccc(F)cc2)c1 | inconclusive: 17.8 µM [activator, single point] | –
62 | Cc1onc(-c2ccccc2Cl)c1C(=O)Nc1ccc(S(=O)(=O)NCC2CCCO2)cc1 (stereo not given) | inconclusive: 29.1 µM [activator, single point] | –
63 | COCCCNC(=O)c1cccn2c(=O)c3cc4ccccc4cc3nc12 | inconclusive: 25.9 µM [activator, single point] | –
64 | COc1ccccc1/C=N/NC(=O)c1nnn(-c2nonc2N)c1-c1ccccc1 | – | inactive: 1.59%
65 | CCOC(=O)Oc1c(OC)cc(C(=O)O[C@@H]2C[C@@H]3CN4CCc5c([nH]c6cc(OC)ccc56)[C@H]4C[C@@H]3[C@H](C(=O)OC)[C@H]2OC)cc1OC | inconclusive: 0.461 µM [activator, single point] | –

A stretch taken from the entries so far, as a working copy:
Row | SMILES | Potency | re-replication activation
33 | C/C(=N\NC(=O)c1cccs1)C(C)(C)C | inconclusive: 23.1 µM [activator, single point] | –
34 | CC(C)C(=O)Nc1ccnc(-c2cccnc2)n1 | inconclusive: 11.6 µM [activator, partial curve, poor fit] | –
35 | CCC(C)NC(=O)c1ccccc1NC(=O)C1COc2ccccc2O1 (stereo not given) | – | inactive: 16.3%
36 | O=C(Cc1ccccc1)Nc1cccnc1 | inconclusive: 29.1 µM [activator, single point] | –
37 | C[C@@H]1CN([C@@H](C)CO)C(=O)c2cccc(NC(=O)Nc3ccc(F)cc3)c2O[C@@H]1CN(C)Cc1ccc(Oc2ccccc2)cc1 | inconclusive: 14.6 µM [activator, single point] | –
38 | COc1cc(C2NC(=O)NC(C)=C2C(=O)OC2CCCCC2)cc(Br)c1O (stereo not given) | inconclusive: 29.1 µM [activator, single point] | –
39 | Nc1nonc1-n1nnc(C(=O)N/N=C/C=C/c2ccccc2)c1CSC1=NCCS1 | inconclusive: 29.1 µM [activator, single point] | –
40 | CCCCNc1c(-c2ccc(OC)c(SC(C)CC)c2)nc2cc(C)ccn12 (stereo not given) | inconclusive: 18.4 µM [activator, single point] | –
41 | O=C1CCC/C(=N/NC(=O)c2sc3ccccc3c2Cl)C1 | inconclusive: 29.1 µM [activator, single point] | –
42 | CCOC(=O)N1CCN(S(=O)(=O)c2ccc(OCC)cc2)CC1 | – | inactive: -1.84%
43 | Cc1cccn2c(=O)c(C=C(C#N)C#N)c(N3CCN(c4cccc(Cl)c4)CC3)nc12 | inconclusive: 29.1 µM [activator, single point] | –
44 | COc1ccc(S(=O)Cc2ccc(C(=O)NCc3cccc(OC)c3)o2)cc1 (stereo not given) | inconclusive: 14.6 µM [activator, partial curve, poor fit] | –
45 | COc1ccccc1C1CC(c2ccccc2)=NN1C(=O)c1ccccc1 (stereo not given) | inconclusive: 29.1 µM [activator, single point] | –
